Assay results: PMC4606566
Results are given in words; binding and its absence hold for the method and conditions named. In cells and extracts the contact can be indirect. For some assays here: A result given as binding can be weak or reduced; the word gives no strength.

Assays:
[1] = molecular target: T1, PIMT (PRIP Interacting protein with Methyl Transferase domain) (rat (endogenous in L6)) (UniProt P85107); test: co-IP; un-stimulated L6 myoblasts; 4 mg lysate (120 mM NaCl, 1% Triton X-100, 20 mM Tris-HCl pH 7.5, 10% glycerol, 2 mM EDTA) immunoprecipitated with anti-PIMT, blotted for Med-1, PGC-1α and MEF2A
T1 sequence: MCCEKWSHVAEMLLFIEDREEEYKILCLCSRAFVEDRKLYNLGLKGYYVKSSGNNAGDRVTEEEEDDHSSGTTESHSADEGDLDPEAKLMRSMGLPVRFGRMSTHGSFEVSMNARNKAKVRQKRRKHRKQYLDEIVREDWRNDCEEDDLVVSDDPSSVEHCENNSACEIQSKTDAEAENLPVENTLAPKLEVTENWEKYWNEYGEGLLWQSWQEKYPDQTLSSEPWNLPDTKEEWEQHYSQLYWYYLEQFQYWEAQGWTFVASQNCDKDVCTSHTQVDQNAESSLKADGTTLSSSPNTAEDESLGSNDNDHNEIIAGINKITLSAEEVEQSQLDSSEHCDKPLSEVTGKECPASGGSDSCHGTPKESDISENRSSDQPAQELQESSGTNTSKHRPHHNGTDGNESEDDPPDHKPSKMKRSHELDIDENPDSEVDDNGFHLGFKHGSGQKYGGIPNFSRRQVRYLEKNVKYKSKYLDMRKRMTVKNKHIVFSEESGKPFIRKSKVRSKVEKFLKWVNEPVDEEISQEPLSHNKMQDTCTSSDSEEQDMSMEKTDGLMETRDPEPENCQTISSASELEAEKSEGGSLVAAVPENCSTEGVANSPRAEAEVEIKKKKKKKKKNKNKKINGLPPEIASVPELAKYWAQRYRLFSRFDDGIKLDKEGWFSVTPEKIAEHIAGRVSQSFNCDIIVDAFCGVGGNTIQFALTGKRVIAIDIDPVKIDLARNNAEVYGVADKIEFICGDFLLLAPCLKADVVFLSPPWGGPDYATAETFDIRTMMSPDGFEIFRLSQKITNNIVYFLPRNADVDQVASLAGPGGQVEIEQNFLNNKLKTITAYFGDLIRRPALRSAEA

[2] = molecular target: T1, PIMT (PRIP Interacting protein with Methyl Transferase domain) (rat (endogenous in L6)); test: co-IP; TNF-α treated L6 myoblasts (2 ng/ml); 4 mg lysate (120 mM NaCl, 1% Triton X-100, 20 mM Tris-HCl pH 7.5, 10% glycerol, 2 mM EDTA) immunoprecipitated with anti-PIMT, blotted for Med-1, PGC-1α and MEF2A

## Med1 (rat (endogenous in L6))
[1]
  binding: binds
[2]
  binding: no binding (only in TNF-α exposed L6 myoblasts)
